# Assay results published in article PMC12040169 (PLOS Biology, 2025).
# This is one part of the list.
# System: T1, CTL2-GFP (C. trachomatis L2/434/Bu, GFP-expressing)
# T1 construct: L2/434/Bu, GFP-expressing
# Design: species or system HeLa; Intracellular C. trachomatis growth in HeLa cells, bulk GFP fluorescence relative to DMSO
# Details: bulk GFP, single well; 28.5 h, 10 µM; inhibitor
row,SMILES,% of control remaining
1,CSCCN1CCC(Oc2nccnc2OCc2cccnc2)CC1 [CBK083173],127.108%
2,Cc1cccc2c3c([nH]c12)C1(CCN(CC2CC2)C1)NCC3 (stereo not shown) [CBK039520],101.245%
3,CCc1c(C)nc2c(N3CCOC3=O)cccc2c1SCCC(=O)O [CBK159595T],121.43%
4,CCOC(=O)c1[nH]c(C)c(/C=C/C2=CCN(C)CC2)c1C [CBK283761],156.761%
5,Cc1[nH]c(=O)[nH]c(=S)c1C(=O)Nc1ccc2[nH]c(C(F)(F)F)nc2c1 [CBK115494],103.314%
6,COC(=O)c1cccc(N(C)S(=O)(=O)c2sc3ccc(Cl)cc3c2C)c1 [CBK160390],122.879%
7,CCOC(=O)CCNC(=O)N(CC)Cc1ccccc1 [CBK155228],104.061%
8,CN1C=NC2C1C(=O)N(CCn1c(=O)c3c(ncn3C)n(C)c1=O)C(=O)N2C (stereo not shown) [CBK268678],88.3803%
9,CN1CCC(N(C)C(=O)NC(c2ccccc2)c2ccccc2)C1 (stereo not shown) [CBK156000],94.5358%
10,CCOC(=O)c1sc(-c2ccccc2)nc1O [CBK074298],85.5452%
11,FC(F)(F)c1nc2ccccc2nc1Sc1ccncc1 [CBK093773],100.226%
12,O=C(CN1CCCCCC1=O)Nc1nc(-c2ccccc2F)cs1 [CBK281408],99.0316%
13,O=c1[nH]c(=O)c2cc(S(=O)(=O)Nc3ccccc3Cc3ccccc3)ccc2[nH]1 [CBK286377],72.741%
14,CC(C)NC(=O)[C@@H](C)C1CC[C@@]2(C)CC[C@H](NC(=O)C3CC3)[C@@H](C)[C@@H]2[C@H]1O (stereo partly shown) [CBK289444],137.25%
15,COc1ccc(OC(=O)c2csc(Cc3c(Cl)cccc3Cl)n2)cc1 [CBK083573],99.4694%
16,Cc1cccn2c(=O)cc(CN3CCC(c4ccn[nH]4)CC3)nc12 [CBK305951],143.62%
17,O=C1CCc2cc(S(=O)(=O)Nc3cccc(-c4ccc(F)cc4)c3)ccc2N1 [CBK286371],81.6844%
18,Cc1cc(N2CCOC(c3cccs3)C2)ccn1 (stereo not shown) [CBK304691],102.762%
19,COc1cccc(/C=C2/SC(=S)NC2=O)c1OCCCOc1ccc(C)cc1C [CBK264441],136.504%
20,Cn1cc(C(=O)NC(Cc2cccs2)c2ccccn2)ccc1=O (stereo not shown) [CBK285209],95.7458%
21,COC(=O)c1ccc(-c2ccc(F)cc2OC)nc1 [CBK149230],108.785%
22,CC(C)Nc1cc(OCc2ccc(-c3ccccc3)cc2)ncn1 [CBK115658],99.4174%
23,N#Cc1c(C(F)(F)F)cc(-c2cccs2)nc1SCC(O)CN1CCSCC1 (stereo not shown) [CBK265947],122.983%
24,COC(=O)c1cn([C@H]2CO[C@H]3[C@@H]2OC[C@@H]3NC(=O)Nc2cccc(C(F)(F)F)c2)nn1 [CBK289501],121.83%
25,COc1c(Br)cc2c(cc(C)n2-c2ccccc2)c1OCC(O)CNC(C)C (stereo not shown) [CBK263516],10.8995%

# Given tab-delimited: part of the list above
row	SMILES	% of control remaining
5	Cc1[nH]c(=O)[nH]c(=S)c1C(=O)Nc1ccc2[nH]c(C(F)(F)F)nc2c1 [CBK115494]	103.314%
21	COC(=O)c1ccc(-c2ccc(F)cc2OC)nc1 [CBK149230]	108.785%
24	COC(=O)c1cn([C@H]2CO[C@H]3[C@@H]2OC[C@@H]3NC(=O)Nc2cccc(C(F)(F)F)c2)nn1 [CBK289501]	121.83%

# The list continues.

row,SMILES,% of control remaining
1,CCC(Sc1nccn1C)C(=O)Nc1ccc(S(N)(=O)=O)cc1 (stereo not shown) [CBK058413],85.4441%
2,Fc1ccccc1-c1nc2cnccn2c1NCc1cccs1 [CBK282332],113.373%
3,O=C(Nc1ccc(N2CCOCC2)c2nonc12)c1cc(-c2cccnc2)nc2ccc(Cl)cc12 [CBK267724],109.96%
4,Cc1ccc(C)c(NC(=O)Cc2nc(CN3CCNC(=O)C3)cs2)c1 [CBK305071],119.17%
5,CC1=NN(C(=O)C2CC2)C(=O)C1Cc1ccc(F)cc1 (stereo not shown) [CBK083561],128.941%
6,COc1ccc(-c2nc3cc(NC(=O)C(c4ccccc4)c4ccccc4)ccc3o2)cc1 [CBK264980],100%
7,Cc1cn([C@H]2C[C@@H](O)[C@@H](CO)O2)c(=O)n(CCC#N)c1=O [CBK201322],128.222%
8,Cc1cc(CN2CC3CCCN3C[C@@H]2C)c(C)n1CC1CCCO1 (stereo partly shown) [CBK285419],131.929%
9,O=C(c1cnn(-c2ccc(Cl)cc2)c1C(F)(F)F)N1CCN(c2ncccn2)CC1 [CBK107448],100%
10,O=S(=O)(NC1c2cccc3cccc(c23)C1Sc1ccccn1)c1ccc(Cl)cc1 (stereo not shown) [CBK264073],125.535%
11,O=C(c1ccccc1F)N1CC2CCCC(C1)C2N1CCOCC1 (stereo not shown) [CBK285262],138.341%
12,O=C(O)CCC(=O)NCCc1ccc(Cl)cc1 [CBK287165],108.916%
13,Cc1ccc(CN(CCCn2ccnc2)Cc2ccncc2)o1 [CBK283101],80.2384%
14,Cc1ccc(C)c(C2CCCN2C(=O)Cn2cc(C(=O)NCc3ccccc3)ccc2=O)c1 (stereo not shown) [CBK286052],88.0655%
15,O=C(c1ccccc1)N1C[C@H](c2ccc(F)cc2)[C@H]2CN(Cc3ccccc3F)CC[C@H]21 [CBK286289],82.0108%
16,Cc1ccc(C)c(C(=O)C2=C(O)C(=O)N(CCCN3CCOCC3)C2c2ccncc2)c1 (stereo not shown) [CBK265492],126.244%
17,CCc1nc2ccc(C(=O)N3CCN(c4ccccc4)CC3)cn2c1N(C)C(=O)Nc1ccccc1OC [CBK145886],170.375%
18,CN1CCN(CCOC(=O)N2CCC(C(F)(F)F)CC2)CC1 [CBK200206],118.886%
19,Cc1nnc(SCC(=O)NC(C)(C)C)n1NCc1cccc(Br)c1 [CBK266517],91.3003%
20,O=C(CSc1nnc(Nc2ccccc2)n1-c1ccccc1)Nc1ccc2c(c1)COC2=O [CBK268298],155.858%
21,COc1cc(C(=O)N2CCC3(CC2)CC(=O)c2ccc(-c4ccccc4)cc2O3)cc(OC)c1C [CBK169037],80.7885%
22,NC(=O)C1CCN(c2ncnc3c2oc2ccccc23)CC1 [CBK287789],125.54%
23,CCOc1ccc2c(c1)-c1c(ssc1=S)C(C)(C)N2C(=O)CSc1nnc[nH]1 [CBK262680],108.891%
24,O=C(Oc1ccccc1)c1cc(S(=O)(=O)N2CCOCC2)c(Cl)cc1Cl [CBK269656],168.969%
